The list shows a part of the results, in another mix than the full data.
What follows are targets tested with COC(=O)C#Cc1ccccc1 [methyl 3-phenylpropiolate] (assay: log2 ratio of iodoacetamide-alkyne labeling of the cysteine site, DMSO over compound (competition); higher = stronger covalent engagement of the cysteine by the compound, active = 1 or more). Conditions: 500 µM; treatment time 1 h; system: HEK293T cell lysate.
Outline: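 HEK293T lysate at 2 mg/mL was treated with vehicle or electrophile (500 µM) for 1 h at ambient temperature, then labelled with iodoacetamide alkyne (1 h), clicked to sCIP-TMT reagents, pooled, digested with trypsin overnight at 37 °C, enriched on streptavidin and eluted with acid. Peptides were analysed by Orbitrap Eclipse LC-MS/MS with FAIMS and quantified in FragPipe, using duplicate channels and three replicates, with cysteines quantified in only one replicate excluded. The log2 competition ratio for each cysteine is the mean control-channel reporter intensity divided by the mean compound-channel reporter intensity.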

By UniProt entry, the sequences of proteins in these tests, tags left out. Where a name states a change or a piece, a line headed by the entry shows the natural chain unless it says otherwise.
UniProt O43175: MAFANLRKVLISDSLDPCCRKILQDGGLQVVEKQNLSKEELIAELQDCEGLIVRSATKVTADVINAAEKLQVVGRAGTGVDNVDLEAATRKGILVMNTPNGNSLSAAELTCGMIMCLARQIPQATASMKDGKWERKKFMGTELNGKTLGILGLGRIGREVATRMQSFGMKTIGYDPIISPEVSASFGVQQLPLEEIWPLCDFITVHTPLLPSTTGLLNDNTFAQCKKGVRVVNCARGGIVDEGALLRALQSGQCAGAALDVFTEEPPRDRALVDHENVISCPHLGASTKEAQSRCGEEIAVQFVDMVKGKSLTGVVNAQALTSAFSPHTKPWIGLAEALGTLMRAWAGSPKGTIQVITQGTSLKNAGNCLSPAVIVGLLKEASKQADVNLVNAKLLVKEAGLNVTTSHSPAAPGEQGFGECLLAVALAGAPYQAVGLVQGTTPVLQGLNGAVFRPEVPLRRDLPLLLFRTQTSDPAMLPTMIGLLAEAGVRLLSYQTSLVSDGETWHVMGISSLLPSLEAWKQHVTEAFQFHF
UniProt O15446, whole entry, looked up: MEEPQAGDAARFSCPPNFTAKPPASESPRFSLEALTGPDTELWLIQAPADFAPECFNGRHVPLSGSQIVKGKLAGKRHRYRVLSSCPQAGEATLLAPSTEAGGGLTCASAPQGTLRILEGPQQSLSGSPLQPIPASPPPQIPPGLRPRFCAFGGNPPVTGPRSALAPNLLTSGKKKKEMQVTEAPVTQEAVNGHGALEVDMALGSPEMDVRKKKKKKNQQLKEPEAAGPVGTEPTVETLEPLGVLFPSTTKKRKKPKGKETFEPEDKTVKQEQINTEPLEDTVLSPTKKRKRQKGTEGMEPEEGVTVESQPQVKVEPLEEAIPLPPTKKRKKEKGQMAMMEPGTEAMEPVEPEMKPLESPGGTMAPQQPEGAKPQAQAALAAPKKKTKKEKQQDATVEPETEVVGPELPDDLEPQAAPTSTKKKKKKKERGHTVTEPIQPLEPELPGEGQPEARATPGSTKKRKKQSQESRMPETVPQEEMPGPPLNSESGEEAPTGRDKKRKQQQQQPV
UniProt O15371, whole entry, looked up: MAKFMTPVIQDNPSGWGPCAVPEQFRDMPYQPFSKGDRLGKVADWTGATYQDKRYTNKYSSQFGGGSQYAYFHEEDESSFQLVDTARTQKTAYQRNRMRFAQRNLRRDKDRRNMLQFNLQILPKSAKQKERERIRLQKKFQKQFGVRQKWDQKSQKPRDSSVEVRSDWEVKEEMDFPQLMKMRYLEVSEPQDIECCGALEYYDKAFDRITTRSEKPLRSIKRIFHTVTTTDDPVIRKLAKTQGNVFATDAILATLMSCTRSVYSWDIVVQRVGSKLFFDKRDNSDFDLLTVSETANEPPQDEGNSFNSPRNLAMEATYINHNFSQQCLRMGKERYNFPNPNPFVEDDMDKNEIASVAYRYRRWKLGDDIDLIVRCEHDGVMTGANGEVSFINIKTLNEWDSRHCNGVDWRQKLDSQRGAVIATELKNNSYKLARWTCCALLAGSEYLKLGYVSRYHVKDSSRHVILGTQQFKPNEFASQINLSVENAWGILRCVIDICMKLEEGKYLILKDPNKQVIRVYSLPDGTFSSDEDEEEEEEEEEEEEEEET
UniProt O14617: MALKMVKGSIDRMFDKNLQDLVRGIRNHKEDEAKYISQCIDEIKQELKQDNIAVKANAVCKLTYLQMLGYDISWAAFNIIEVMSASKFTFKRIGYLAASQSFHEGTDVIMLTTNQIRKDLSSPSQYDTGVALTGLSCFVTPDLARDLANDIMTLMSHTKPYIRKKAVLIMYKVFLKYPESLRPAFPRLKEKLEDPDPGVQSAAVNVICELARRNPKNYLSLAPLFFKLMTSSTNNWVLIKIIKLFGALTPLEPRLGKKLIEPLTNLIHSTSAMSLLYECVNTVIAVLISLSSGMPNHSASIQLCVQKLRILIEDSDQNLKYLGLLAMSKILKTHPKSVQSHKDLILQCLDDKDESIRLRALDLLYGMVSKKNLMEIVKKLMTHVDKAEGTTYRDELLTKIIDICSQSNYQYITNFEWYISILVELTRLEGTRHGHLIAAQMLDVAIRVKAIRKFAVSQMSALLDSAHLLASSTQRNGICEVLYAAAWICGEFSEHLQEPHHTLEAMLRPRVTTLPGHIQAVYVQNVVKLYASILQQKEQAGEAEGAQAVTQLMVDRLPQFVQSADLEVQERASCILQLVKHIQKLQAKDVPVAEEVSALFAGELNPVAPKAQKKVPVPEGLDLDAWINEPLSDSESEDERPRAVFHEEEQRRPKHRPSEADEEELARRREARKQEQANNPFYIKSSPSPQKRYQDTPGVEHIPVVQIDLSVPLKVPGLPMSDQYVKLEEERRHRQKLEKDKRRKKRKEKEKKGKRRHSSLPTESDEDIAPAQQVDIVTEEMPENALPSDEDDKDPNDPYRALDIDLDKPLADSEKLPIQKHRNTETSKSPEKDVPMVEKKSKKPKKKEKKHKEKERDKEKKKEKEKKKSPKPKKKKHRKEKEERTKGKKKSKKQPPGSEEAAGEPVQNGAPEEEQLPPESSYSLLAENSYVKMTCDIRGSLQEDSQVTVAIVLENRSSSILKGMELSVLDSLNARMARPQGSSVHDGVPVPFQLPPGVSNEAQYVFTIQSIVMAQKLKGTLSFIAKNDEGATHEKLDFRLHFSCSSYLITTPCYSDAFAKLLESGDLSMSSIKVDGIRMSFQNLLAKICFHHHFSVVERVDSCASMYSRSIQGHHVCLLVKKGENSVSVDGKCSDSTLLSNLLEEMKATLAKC
UniProt O00151: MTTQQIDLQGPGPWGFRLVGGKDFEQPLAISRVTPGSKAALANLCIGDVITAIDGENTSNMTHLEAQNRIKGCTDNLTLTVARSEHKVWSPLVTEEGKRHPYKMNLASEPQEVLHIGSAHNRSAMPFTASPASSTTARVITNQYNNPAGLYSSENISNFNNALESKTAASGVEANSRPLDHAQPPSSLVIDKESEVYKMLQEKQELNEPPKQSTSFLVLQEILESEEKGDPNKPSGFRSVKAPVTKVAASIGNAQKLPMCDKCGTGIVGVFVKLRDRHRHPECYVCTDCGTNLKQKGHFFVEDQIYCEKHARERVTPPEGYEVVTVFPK
UniProt O43149: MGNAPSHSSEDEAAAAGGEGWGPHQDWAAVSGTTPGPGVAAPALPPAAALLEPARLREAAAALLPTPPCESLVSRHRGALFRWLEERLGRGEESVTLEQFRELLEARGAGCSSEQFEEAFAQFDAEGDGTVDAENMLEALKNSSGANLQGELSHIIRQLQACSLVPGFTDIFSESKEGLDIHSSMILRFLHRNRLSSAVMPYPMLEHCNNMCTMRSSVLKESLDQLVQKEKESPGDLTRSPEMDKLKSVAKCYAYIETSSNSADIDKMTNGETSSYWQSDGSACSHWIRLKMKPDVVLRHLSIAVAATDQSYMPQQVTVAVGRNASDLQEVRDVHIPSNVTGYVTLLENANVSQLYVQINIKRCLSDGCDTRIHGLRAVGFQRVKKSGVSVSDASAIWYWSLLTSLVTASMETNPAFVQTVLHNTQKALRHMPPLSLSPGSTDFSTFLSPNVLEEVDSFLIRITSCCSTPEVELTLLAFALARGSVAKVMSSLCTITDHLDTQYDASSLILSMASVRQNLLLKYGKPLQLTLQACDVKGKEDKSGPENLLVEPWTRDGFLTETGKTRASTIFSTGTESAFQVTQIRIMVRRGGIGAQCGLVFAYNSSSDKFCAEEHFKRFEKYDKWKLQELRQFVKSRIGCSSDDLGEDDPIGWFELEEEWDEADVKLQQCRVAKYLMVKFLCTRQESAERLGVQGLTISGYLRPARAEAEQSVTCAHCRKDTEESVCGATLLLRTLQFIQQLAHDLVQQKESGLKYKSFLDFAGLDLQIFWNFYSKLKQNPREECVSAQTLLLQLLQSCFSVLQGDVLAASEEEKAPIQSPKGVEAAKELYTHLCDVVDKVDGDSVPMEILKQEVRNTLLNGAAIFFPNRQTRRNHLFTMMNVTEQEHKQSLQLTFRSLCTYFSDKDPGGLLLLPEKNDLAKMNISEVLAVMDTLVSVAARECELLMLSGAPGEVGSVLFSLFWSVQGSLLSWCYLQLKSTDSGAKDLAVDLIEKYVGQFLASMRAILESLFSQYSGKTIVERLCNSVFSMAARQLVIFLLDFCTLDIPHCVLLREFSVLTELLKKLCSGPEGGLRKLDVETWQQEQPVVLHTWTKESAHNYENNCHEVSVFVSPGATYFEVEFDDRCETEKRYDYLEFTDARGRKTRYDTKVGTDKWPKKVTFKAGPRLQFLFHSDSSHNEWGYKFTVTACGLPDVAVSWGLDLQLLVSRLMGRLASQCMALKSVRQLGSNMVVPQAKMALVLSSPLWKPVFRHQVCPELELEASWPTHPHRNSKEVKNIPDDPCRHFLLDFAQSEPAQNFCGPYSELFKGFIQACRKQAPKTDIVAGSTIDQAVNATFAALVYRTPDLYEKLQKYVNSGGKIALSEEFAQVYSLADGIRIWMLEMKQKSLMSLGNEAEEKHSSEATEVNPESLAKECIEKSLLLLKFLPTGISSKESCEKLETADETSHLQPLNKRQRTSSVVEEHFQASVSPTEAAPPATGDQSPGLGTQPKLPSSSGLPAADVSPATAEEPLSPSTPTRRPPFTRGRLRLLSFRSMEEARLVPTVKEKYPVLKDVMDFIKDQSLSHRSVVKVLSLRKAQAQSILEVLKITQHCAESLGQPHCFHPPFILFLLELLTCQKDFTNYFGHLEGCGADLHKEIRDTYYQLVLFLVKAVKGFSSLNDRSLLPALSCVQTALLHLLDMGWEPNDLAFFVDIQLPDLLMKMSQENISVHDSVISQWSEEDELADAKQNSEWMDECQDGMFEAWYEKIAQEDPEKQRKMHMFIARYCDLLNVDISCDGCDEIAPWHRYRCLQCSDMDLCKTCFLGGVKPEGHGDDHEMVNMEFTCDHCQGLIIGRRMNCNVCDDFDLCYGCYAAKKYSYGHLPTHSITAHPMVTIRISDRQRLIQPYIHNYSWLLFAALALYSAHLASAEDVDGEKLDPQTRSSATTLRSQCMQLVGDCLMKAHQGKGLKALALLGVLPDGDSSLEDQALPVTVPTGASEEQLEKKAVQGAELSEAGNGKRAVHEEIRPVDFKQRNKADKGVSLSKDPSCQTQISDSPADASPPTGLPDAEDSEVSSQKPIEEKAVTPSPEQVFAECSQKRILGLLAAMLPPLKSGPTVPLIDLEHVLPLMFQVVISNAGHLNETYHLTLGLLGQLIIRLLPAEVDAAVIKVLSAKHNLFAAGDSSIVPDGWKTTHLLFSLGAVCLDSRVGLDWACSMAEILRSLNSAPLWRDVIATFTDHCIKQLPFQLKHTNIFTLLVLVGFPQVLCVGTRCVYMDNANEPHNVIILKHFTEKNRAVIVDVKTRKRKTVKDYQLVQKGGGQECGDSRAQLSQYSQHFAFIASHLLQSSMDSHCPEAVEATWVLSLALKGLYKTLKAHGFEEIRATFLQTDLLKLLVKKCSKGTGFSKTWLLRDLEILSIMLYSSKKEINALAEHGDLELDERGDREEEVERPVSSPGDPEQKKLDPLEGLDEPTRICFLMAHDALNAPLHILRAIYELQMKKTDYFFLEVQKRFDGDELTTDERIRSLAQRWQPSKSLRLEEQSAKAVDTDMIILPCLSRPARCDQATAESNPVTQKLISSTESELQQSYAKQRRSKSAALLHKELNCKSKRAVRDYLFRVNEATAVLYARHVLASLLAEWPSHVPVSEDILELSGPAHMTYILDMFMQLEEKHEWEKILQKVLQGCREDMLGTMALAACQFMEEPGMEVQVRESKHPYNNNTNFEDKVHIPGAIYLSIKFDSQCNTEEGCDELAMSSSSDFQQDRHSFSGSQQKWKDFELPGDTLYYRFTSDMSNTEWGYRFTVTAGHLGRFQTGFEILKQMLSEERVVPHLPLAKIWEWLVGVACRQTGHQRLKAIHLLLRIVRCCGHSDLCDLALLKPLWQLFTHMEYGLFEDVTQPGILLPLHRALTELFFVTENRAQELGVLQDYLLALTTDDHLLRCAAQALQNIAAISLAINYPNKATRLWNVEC
UniProt O00244: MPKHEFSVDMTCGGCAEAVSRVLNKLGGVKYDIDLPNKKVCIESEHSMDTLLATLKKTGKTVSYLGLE
UniProt O15347: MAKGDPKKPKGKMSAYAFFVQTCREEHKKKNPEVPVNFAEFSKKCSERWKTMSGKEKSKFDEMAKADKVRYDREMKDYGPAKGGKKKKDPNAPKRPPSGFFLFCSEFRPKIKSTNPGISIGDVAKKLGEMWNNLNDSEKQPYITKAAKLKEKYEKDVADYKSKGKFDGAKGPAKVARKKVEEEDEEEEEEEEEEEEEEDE
UniProt O15260: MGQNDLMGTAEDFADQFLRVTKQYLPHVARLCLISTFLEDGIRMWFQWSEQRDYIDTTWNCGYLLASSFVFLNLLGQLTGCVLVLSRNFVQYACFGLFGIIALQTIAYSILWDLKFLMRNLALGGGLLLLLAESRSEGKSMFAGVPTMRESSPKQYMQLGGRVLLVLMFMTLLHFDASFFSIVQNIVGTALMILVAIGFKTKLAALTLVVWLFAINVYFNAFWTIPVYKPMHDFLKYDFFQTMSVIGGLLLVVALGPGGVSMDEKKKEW

log2 ratio of iodoacetamide-alkyne labeling, active:
OGT C620 (UniProt O15294) 1.35
POLRMT C119 (UniProt O00411) 1.22
PHGDH C369 (UniProt O43175) 1.78

log2 ratio of iodoacetamide-alkyne labeling, inactive:
PPM1G C13 (UniProt O15355) 0.0286
CD3EAP C150 (UniProt O15446) 0.434
HGS C215 (UniProt O14964) -0.207
SLC9A3R1 C16 (UniProt O14745) -0.0097
ARID1A C1874 (UniProt O14497) 0.298
SPTBN2 C2043 (UniProt O15020) 0.128
XPO1 C327 (UniProt O14980) -0.125
EIF3D C196 (UniProt O15371) 0.719
AP3D1 C208 (UniProt O14617) 0.338
PDLIM1 C73 (UniProt O00151) -0.0138
FAM171A2 C742 (UniProt A8MVW0) 0.116
KMT2D C2249 (UniProt O14686) 0.651
WDR46 C456 (UniProt O15213) 0.493
PPM1G C241 (UniProt O15355) 0.17
POLRMT C925 (UniProt O00411) -0.0567
DYNC1LI2 C104 (UniProt O43237) -0.124
GTPBP1 C241 (UniProt O00178) 0.237
ZZEF1 C1259 (UniProt O43149) 0.747
UniProt O43159_C320 0.138
EEF2K C482 (UniProt O00418) 0.858
OGT C962 (UniProt O15294) -0.0164
EIF3D C19 (UniProt O15371) 0.173
UniProt O14715_C1431 0.0806
ATOX1 C41 (UniProt O00244) 0.0939
PHGDH C281 (UniProt O43175) 0.43
PIK3R2 C396 (UniProt O00459) -0.0814
RNMT C50 (UniProt O43148) 0.483
HMGB3 C23 (UniProt O15347) -0.18
ZZEF1 C2466 (UniProt O43149) -0.132
IPO5 C915 (UniProt O00410) -0.00533
SURF4 C32 (UniProt O15260) 0.0105
PFAS C502 (UniProt O15067) 0.181
UniProt O14979_C177 0.0873
SPTBN2 C1140 (UniProt O15020) 0.212

2 entries picked at random from those above, as already listed:
log2 ratio of iodoacetamide-alkyne labeling, inactive:
ZZEF1 C2466 (UniProt O43149) -0.132
ZZEF1 C1259 (UniProt O43149) 0.747

Reference: the supplement of paper PMC11006884
